Results reported in patent US20160354479A1 (ESBATECH AN ALCON BIOMEDICAL RESEARCH UNIT, published 2016).
These are yes or no findings as the source states them, for the method shown. Some results given as binding are weak or reduced against the parent protein; the word gives no strength. One block for each binder: values may come before it.

Chains of the proteins cited; added tags and fusions are not shown. Residues count along the entry.
UniProt P01375, residues 77-233: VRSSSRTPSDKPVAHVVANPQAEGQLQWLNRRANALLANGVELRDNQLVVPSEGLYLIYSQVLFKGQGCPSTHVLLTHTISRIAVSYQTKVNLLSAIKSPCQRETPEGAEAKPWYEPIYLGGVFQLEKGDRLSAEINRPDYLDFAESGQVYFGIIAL

Experiments:
Human TNF alpha [1] = target: T1, Human TNF alpha (human, UniProt P01375 77-233); experiment: direct ELISA on coated human TNF alpha, detection with biotinylated rabbit anti-ESBA105 antibody and streptavidin poly-HRP, OD 450 nm
T1 construct: Coated on the ELISA plate
Method: Binding of ESBA105 and its derivatives was assessed by a direct ELISA. Human TNF alpha (PeproTech EC Ltd) was coated on a 96-well microtitre plate and then blocked using BSA (bovine serum albumin). ESBA105 and ESBA105 derivates were tested at concentrations of 50 nM, 12.5 nM, 3.13 nM, 1.56 nM, 0.78 nM, 0.39 nM, 0.20 nM, 0.10 nM and 0.05 nM. Binding of ESBA105 and its derivatives to human TNF alpha was visualized by the subsequent addition of a biotinylated rabbit polyclonal anti-ESBA105 antibody (AK3A, generated at ESBATech), streptavidin Poly HRP and a chromogenic substrate (POD). The product of this reaction was detected by measurement of the optical densitiy (OD) at […] using a spectrophotometer. Data were analyzed using a 4-parameter logistic curve fit, and EC₅₀ values were calculated from the dose-response curves of the scFvs.

Human TNF alpha [2] = target: T1, Human TNF alpha; experiment: direct ELISA, human TNF alpha coated

binding (Human TNF alpha [1]): binds
B1: ESBA105 (scFv)
scFv: MADIVMTQSPSSLSASVGDRVTLTCTASQSVSNDVVWYQQRPGKAPKLLIYSAFNRYTGVPSRFSGRGYGTDFTLTISSLQPEDVAVYYCQQDYNSPRTFGQGTKLEVKRGGGGSGGGGSGGGGSSGGGSQVQLVQSGAEVKKPGASVKVSCTASGYTFTHYGMNWVRQAPGKGLEWMGWINTYTGEPTYADKFKDRFTFSLETSASTVYMELTSLTSDDTAVYYCARERGDAMDYWGQGTLVTVSS
notes: Untreated scFv (VL-linker-VH), made in E. coli; also called ESBA105 Normal linker; naked ESBA105

binding (Human TNF alpha [2]): binds
B2: reduced ESBA105 (scFv)
scFv: B1 scFv
modifications: disulfide bonds reduced with 20 mM DTT

binding (Human TNF alpha [2]): binds
B3: Lys pegylated ESBA105 (scFv)
scFv: B1 scFv
modifications: primary amines (lysine residues) PEGylated with PEG-NHS; positions not given
